At least one structure is not confirmed: it was looked up by name or label, or the drawing left a doubt.
Legend:
p62/SQSTM1 = test: Western blot of p62 in brain extracts; assay type: in vivo, mice; conditions: rapamycin treatment
[1] = rapamycin pretreatment; cited from earlier work
TDP-43 [2] = test: Western blot of TDP-43 in urea-soluble fractions of brain extracts; assay type: in vivo; conditions: FTLD-U mice forebrain, after 4 months of rapamycin treatment
NeuN(+) cells = test: Immunohistostaining of NeuN(+) cells in brain sections; assay type: in vivo; conditions: TDP-43 Tg mice, rapamycin vs vehicle
TDP-43 [3] = test: Western blot of TDP-43 in soluble/RIPA fractions of cortex and hippocampus extracts; assay type: in vivo; conditions: 6 month-old FTLD-U mice
[4] = tested on: TDP-43 Tg mice (FTLD-U mouse model); test: Rotarod test; assay type: in vivo; conditions: age 6 months, rapamycin 10 mg/kg i.p. three times a week for 4 months, vs vehicle-treated Tg mice
ALS mice (SOD1G93A) = conditions: cited from earlier work
caspase-3 = test: Western blotting of pro- and active caspase-3 in cortex and hippocampus extracts; assay type: in vivo, mice; conditions: rapamycin vs vehicle
[5] = tested on: phospho-p70 S6 kinase (P-p70); test: Western blot of P-p70 in brain extracts; assay type: in vivo, mice; conditions: hippocampus regions, rapamycin vs vehicle
[6] = tested on: C199-TDP transfected cells; conditions: cited from earlier work
[7] = tested on: TDP-43 Tg mice (FTLD-U mouse model); test: Morris water maze task; assay type: in vivo; conditions: age 3 months, rapamycin 10 mg/kg i.p. three times a week for 1 month, vs vehicle-treated Tg mice
TDP-43 (+) inclusions = test: Immunohistochemical staining of TDP-43 (+) inclusions in brain sections; assay type: in vivo; conditions: 6-month-old FTLD-U mice, rapamycin vs vehicle
active caspase-3 = test: Immunohistostaining of active caspase-3 in brain sections; assay type: in vivo; conditions: TDP-43 Tg mice, rapamycin vs vehicle
[8] = TDP-43 Tg mice, cortex and hippocampus extracts

CO[C@H]1C[C@@H]2CC[C@@H](C)[C@@](O)(O2)C(=O)C(=O)N2CCCC[C@H]2C(=O)O[C@H]([C@H](C)C[C@@H]2CC[C@@H](O)[C@H](OC)C2)CC(=O)[C@H](C)/C=C(\C)[C@@H](O)[C@@H](OC)C(=O)[C@H](C)C[C@H](C)/C=C/C=C/C=C/1C [rapamycin]
level of p62 (p62/SQSTM1; FTLD-U mice forebrain): reduced
level of p62 (p62/SQSTM1; WT mice forebrain): reduced
mitochondrial loads [1]: reduced mitochondrial loads
expression level of full-length TDP-43 in the urea-soluble fraction (TDP-43 [2]): downregulated
expression level of poly-ubiquitinated TDP-43 in the urea-soluble fraction (TDP-43 [2]): downregulated
expression level of the 35 fragment of TDP-43 in the urea-soluble fraction (TDP-43 [2]): downregulated
neurons (NeuN(+) cells) in brain sections (NeuN(+) cells): increase of the neurons
amount of full-length TDP-43 in the soluble (RIPA) fraction (TDP-43 [3]): did not reduce
rotarod performance [4]: significantly better
accumulation of SOD1 aggregates (ALS mice (SOD1G93A); ALS mice): no obvious effects
life span (ALS mice (SOD1G93A); ALS mice): shortened the life span
motor neuron degeneration (ALS mice (SOD1G93A); ALS mice): accelerated motor neuron degeneration
rescue of the phenotype (ALS mice (SOD1G93A); mouse model with transgenic overexpression of mutant SOD1G93A protein): could not rescue the phenotype
level of active caspase-3 (caspase-3; [8]): significantly decreased
level of pro-caspase-3 (caspase-3; [8]): significantly decreased
level of active caspase-3 (significant decrease) (caspase-3; WT mice): but not the WT mice
level of pro-caspase-3 (significant decrease) (caspase-3; WT mice): but not the WT mice
level of phospho-p70 S6 kinase (P-p70) ([5]; FTLD-U mice): reductions
level of phospho-p70 S6 kinase (P-p70) ([5]; WT mice): reductions
steady-state levels of ~25 kDa TDP-43 fragment ([6]; C199-TDP transfected N2A mouse and SH-SY5Y human neuroblastoma cells): reduced
amount of full-length TDP-43 ([6]; C199-TDP transfected cells): had no effect
mislocalization of TDP-43 to cytoplasm ([6]; C199-TDP transfected cells): decreased
escape latency [7]: significantly shorter
number of forebrain cells with cytosolic TDP-43 (+) inclusions and TDP-43 depleted nuclei (TDP-43 (+) inclusions): greatly reduced
active caspase-3 by immunostaining of brain sections (active caspase-3): decrease of the active caspase-3
